Our source for the AC50 values is PubChem BioAssay AID493014 (National Center for Advancing Translational Sciences (NCATS), 2011).

This experiment in a line: qHTS Assay to Find Inhibitors of Chronic Active B-Cell Receptor Signaling. To be noted: ABC-DLBCL IkBa-CBG/CBR reporter, luminescence ratio (green luciferase fused to IkBa over red control in TMD8 lymphoma cells), 4 h. The method in brief: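 Concentration-response series (up to 46 uM) were applied to TMD8 dual-reporter cells for 4 h at 37C with doxycycline. Green/red ratio, after filter-overlap correction, defined %Activity; red signal alone was normalised to basal cells and zero luminescence.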
A general note: Quantitative high-throughput screening tests each substance at several concentrations.

Setting [1] is: measured here: CBR red luminescence, cell number.
Setting [2] is: measured here: IkBa-CBG green luminescence.

Structures are written as SMILES. The list shows a part of the results. The main result of the screen is listed elsewhere. These columns were measured beside it and carry no call. Most of these compounds were active or inconclusive in the main read-out, so they are no random draw. Words in brackets tell the shape of the fitted curve; partial curves, single points and poor fits give uncertain potencies.

For orientation: AC50 means the concentration giving half of the maximal activity seen. With `O=C(COC(=O)c1ccco1)Nc1ccccc1[N+](=O)[O-]`, under setting [1], the AC50 was 15.8 µM [rising, single point].

In the case of `Cc1ccccc1-c1cc(C(=O)Nc2sc(C(=O)OC(C)C)c(C)c2C#N)c2ccccc2n1`, under setting [1], the AC50 is 35.5 µM [falling, single point].

With `Cc1ccccc1NC(=O)CC1C(=O)Nc2ccccc2N1CC(=O)N(C)C1CCS(=O)(=O)C1` (configuration not stated), the concentration at half-maximal activity (AC50) under setting [1] was 6.51 µM [falling, partial curve, poor fit].

In the case of `S=c1sc2c(N3CCN(Cc4ccccc4)CC3)ncnc2n1-c1ccccc1`, the half-maximal activity concentration (AC50) under setting [1] is 29.1 µM [falling, single point].

For `C/C(CCC(C)C)=N\NC(=O)COc1ccccc1-c1ccccc1`, the AC50 under setting [1] is 3.98 µM [rising, full curve] and the AC50 under setting [2] is 5.62 µM [falling, full curve].

Take `O=C(/C=C/c1ccccc1)Nn1cnc2ccccc2c1=O`: the concentration at half-maximal activity (AC50) under setting [1] is 6.51 µM [falling, partial curve].

Regarding `COc1ccccc1-n1cnc2cc(NC(=O)c3ccco3)ccc21`, the AC50 under setting [1] was 7.31 µM [falling, partial curve, poor fit].

`C=CCOc1cc(OC)c(OC)c(OC)c1`: the concentration at half-maximal activity (AC50) under setting [1] was 1.58 µM [rising, full curve, poor fit].

As to `CCN1CCN(C(=O)c2cc3c(OC)c(OC)c(OC)cc3[nH]2)CC1`, under setting [1], the concentration at half-maximal activity (AC50) was 3.16 µM [rising, partial curve].

Consider `Cc1ccc(C(=O)Nc2ccccc2OC(F)F)cc1`, for which, under setting [1], the AC50 is 29.1 µM [rising, single point].

As for `COc1ccccc1OCc1nc(C#N)c(N2CCC(C(N)=O)CC2)o1`, the half-maximal activity concentration (AC50) under setting [1] was 6.51 µM [rising, single point].

In the case of `COC(=O)c1cnn(-c2ccccc2)c1/C=N/NC(=S)Nc1ccccc1`, under setting [1], the AC50 was 3.98 µM [falling, full curve, poor fit].

Regarding `CCc1ccc(NC(=O)N(CCCN2CCOCC2)Cc2cccs2)cc1`, under setting [1], the half-maximal activity concentration (AC50) is 6.51 µM [falling, single point].

In the case of `O=C(COC(=O)CCC1CCCCC1)Nc1ccc(OC(F)F)cc1`, the concentration at half-maximal activity (AC50) under setting [1] is 23.1 µM [rising, single point].

Take `Cc1cccc(NC(=S)NC(=O)c2ccc(Br)o2)c1C`: the concentration at half-maximal activity (AC50) under setting [1] is 11.2 µM [rising, single point].

For `COc1ccc(NC(=O)C2CCCN(C)C2)cc1OCC(C)C` (configuration not stated), the concentration at half-maximal activity (AC50) under setting [1] is 6.51 µM [rising, full curve, poor fit].

For `COc1cc(/C=C2/C(=O)ON=C2c2ccccc2)ccc1O`, the AC50 under setting [1] is 6.51 µM [rising, partial curve] and the AC50 under setting [2] is 20.6 µM [rising, partial curve, poor fit].

`CCOc1ccc(C(C)NC(=O)CN2C(=O)NC3(CCCCC3)C2=O)cc1OCC` (configuration not stated): the AC50 under setting [1] is 9.2 µM [rising, partial curve].

Consider `Cc1ccc(OCCC(=O)Nc2ccc(S(=O)(=O)Nc3cc(C)nc(C)n3)cc2)cc1`, for which the AC50 under setting [1] is 0.0326 µM [rising, full curve, poor fit].

With `COC(=O)c1ccccc1NC(=O)CN1CCCCCC1`, the concentration at half-maximal activity (AC50) under setting [1] was 10 µM [falling, partial curve, poor fit].

As to `Cc1cccc(N2CCN(C(=O)C3CCN(S(=O)(=O)c4cccnc4)CC3)CC2)c1C`, under setting [1], the AC50 is 0.058 µM [rising, full curve, poor fit].

As for `COCC(C)Nc1ncnc2c1cnn2-c1cccc(Cl)c1` (configuration not stated), the AC50 under setting [1] is 3.16 µM [falling, full curve, poor fit].

In the case of `COc1cc(/C=N/NC(=O)C2=NNC(=O)C2C)ccc1O` (configuration not stated), the AC50 under setting [1] is 14.1 µM [falling, partial curve, poor fit].

Regarding `COc1ccccc1OCCNC(=O)c1ccc2c(c1)OCCO2`, the half-maximal activity concentration (AC50) under setting [1] is 6.51 µM [falling, partial curve, poor fit].

Turning to `O=C(N/N=C1\CCCc2ccccc21)c1cccc([N+](=O)[O-])c1`, under setting [1], the AC50 is 1.16 µM [rising, full curve, poor fit].

For `COc1ccc(Cl)cc1-c1nc(SCC(=O)N(C)C)n[nH]1`, under setting [1], the AC50 is 35.5 µM [falling, single point].

With `COc1ccc(C/C(C)=N\NC(=O)c2c[nH]c3ccccc23)cc1OC`, under setting [1], the AC50 is 3.98 µM [falling, partial curve, poor fit].

`Cc1ccsc1/C=N/NC(=O)c1cccs1`: under setting [1], the AC50 was 29.1 µM [falling, single point].

Turning to `COc1ccc(CC(=O)Nc2ccc(-c3nc4ccccc4s3)c(C)c2)cc1`, the AC50 under setting [1] was 6.31 µM [rising, single point].

`COc1ccc(C2CC(=O)Oc3c(C(CCN4CCCCC4)c4ccc(N(C)C)cc4)c(OC)cc(OC)c32)cc1` (configuration not stated): the half-maximal activity concentration (AC50) under setting [1] is 35.5 µM [falling, single point].

On to `COc1ccc(NC(=O)CCCn2c(=O)c3sccc3n(Cc3ccc(C)cc3)c2=O)cc1`, for which the concentration at half-maximal activity (AC50) under setting [1] was 2.06 µM [rising, partial curve].

Take `NNC(=O)c1nnn(-c2nonc2N)c1CN1CCc2ccccc2C1`: the AC50 under setting [1] was 0.501 µM [rising, full curve, poor fit].

Turning to `CCC1(CC)Nc2ccccc2C(=O)N1c1ccc(OC)cc1`, the AC50 under setting [1] is 12.6 µM [falling, single point].

Consider `C=CC[C@H](CC(=O)N(CCO)Cc1ccccc1)C(=O)N[C@@H](COC(=O)[C@H](CC=C)CC(=O)OC(C)(C)C)Cc1c[nH]c2ccccc12`, for which the concentration at half-maximal activity (AC50) under setting [1] was 29.1 µM [falling, single point].

Regarding `Cc1nn2c(N3CCOCC3)cc(C(C)C)nc2c1-c1ccccc1`, the AC50 under setting [1] was 8.91 µM [rising, partial curve, poor fit].

As to `COc1cc(C2Nc3ccc4ccccc4c3C3=C2C(=O)CC(C)(C)C3)ccc1OC(C)C(=O)O` (configuration not stated), the concentration at half-maximal activity (AC50) under setting [1] was 20 µM [falling, partial curve].

Turning to `CSc1ccccc1-n1nnnc1SCC(=O)Nc1ccccc1C`, the concentration at half-maximal activity (AC50) under setting [1] was 1.84 µM [falling, full curve, poor fit].

On to `Cc1nccn1CC(=O)N/N=C/c1ccccc1O`, for which the AC50 under setting [1] is 6.31 µM [rising, partial curve].

As to `CC1=C(C(=O)OCc2ccccc2)C(c2cccnc2)c2c(n(C)c(=O)n(C)c2=O)N1` (configuration not stated), the AC50 under setting [1] was 0.316 µM [falling, full curve].

Consider `Cc1ccsc1/C=C1/C(=O)NN(c2ccccc2)C1=O`, for which, under setting [1], the AC50 was 17.8 µM [falling, single point].
